# In PubChem BioAssay AID504444 (National Center for Advancing Translational Sciences (NCATS), 2011):
# In all, about 360,000 compounds went through this assay and about 7,500 (2.1%) were called active. Inconclusive means that the source gave no clear call. Such entries were picked first, then a sample of the others. Calls come from the whole dose curve; as a rule, active = well fitted inhibition curve with a large enough effect; inconclusive = small, poorly fitted or top-dose-only effect, or effect the other way; inactive = flat fitted curve, though single readings scatter. A potency beside an inconclusive call is a rough fit, not a confirmed value.
# Experiment: Nrf2 qHTS screen for inhibitors; note: nearly all actives have a fitted effect of over 60% in size
# Conditions: A549 ARE-Fluc reporter, luciferase luminescence, 18-24 h; activity change, negative = inhibition: at 46 µM (top of the series)
# How it was run: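 Nrf2 activity is the BugLite luminescence, read 15 min after reagent at room temperature, following CellTiter-Fluor cytotoxicity readout (30 min, 37C). Compound titrations were applied for 18-24 h to 5000 A549 ARE_Fluc cells/well in 5% FBS OPTI-MEM.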
# % is set by controls: 0 for no effect and ±100 for the full control effect; potency is the fitted concentration of half-maximal effect.
Structure (SMILES),Potency,"activity change, negative = inhibition"
CCSC(C)CC1C/C(=N/O)c2c(CC)noc2C1 (configuration not stated),active: 23.1 µM,–
CC(C)n1ncc2c(C(=O)N3CCN(c4ccccc4)CC3)cc(-c3ccccc3)nc21,"inconclusive: 16.4 µM [falling, partial curve, poor fit]",–
Cc1nnc2ccc(-c3cccc(NS(=O)(=O)c4ccccc4Cl)c3)nn12,"inconclusive: 18.4 µM [falling, single point]",–
Cc1nc(NS(=O)(=O)c2ccccc2C)c2c3c(sc2n1)CCC3,"inconclusive: 13 µM [falling, partial curve, poor fit]",–
CC[n+]1c(/C=C/C=C/N(C(C)=O)c2ccccc2)sc2cc(OC)ccc21,–,inactive: -11.4%
FC(F)Sc1ccc(N=C2NN=C(c3ccc4c(c3)OCCO4)CS2)cc1,active: 16.4 µM,–
C=C1C(=O)C=C[C@]2(C)C[C@@H]3OC(=O)[C@](C)(O)[C@H]3C[C@@H]12,"inconclusive: 20.6 µM [falling, single point]",–
COc1ccc2[nH]cc(CCN=C(NC(=O)c3cccc(Cl)c3)Nc3nc(C)cc(C)n3)c2c1,"inconclusive: 6.51 µM [falling, partial curve, poor fit]",–
CCOc1ccc(C(=O)NC(=S)Nc2ccc(N3CCOCC3)c(Cl)c2)cc1[N+](=O)[O-],"inconclusive: 20.6 µM [falling, single point]",–
Cc1ccc(OCC(=O)Nc2ccccc2F)cc1C,"inconclusive: 20.6 µM [activator, single point]",–
O=c1c2ccccc2nc2sc(Nc3cccc(Cl)c3)nn12,"inconclusive: 3.26 µM [activator, partial curve, poor fit]",–
COc1cccc(CNC(=O)CCNS(=O)(=O)c2ccc(C)cc2)c1,"inconclusive: 4.11 µM [activator, partial curve, poor fit]",–
COc1ccc(CNC(=O)CN(Cc2ccc(F)cc2)C(=O)CCC(=O)Nc2nccs2)cc1,"inconclusive: 29.1 µM [activator, single point]",–
O=C(Nc1ccccn1)c1cc(-c2cccnc2)nc2ccc(Br)cc12,"inconclusive: 20.6 µM [falling, partial curve]",–
O=[N+]([O-])c1cnc2ccccn12,"inconclusive: 20.6 µM [activator, partial curve, poor fit]",–
Cn1nnnc1Sc1ncnc2scc(-c3ccccc3[N+](=O)[O-])c12,"inconclusive: 16.4 µM [falling, partial curve]",–
CCN(CC)CCn1c2ccccc2c2cnc(N=CN(C)C)c(C#N)c21,"inconclusive: 32.6 µM [falling, single point]",–
COc1ccc(NC(=S)NC(=O)/C=C/c2cccs2)cc1,–,inactive: 15.1%
CC(C)=CCC/C(C)=C/CNC(=O)CC1C[C@H](C(=O)N(C(C)C)C(C)C)[C@@]2(C)c3[nH]c4ccccc4c3CCN2C1=O (some centres not stated),"inconclusive: 29.1 µM [falling, single point]",–
CCN(CC)c1ccc(/C=C2\SC(=O)N(C(C)C)C2=O)o1,–,inactive: -1.29%
COc1ccc(C(=O)NCCCc2nc3ccccc3n2Cc2ccccc2C)cc1OC,"inconclusive: 0.146 µM [falling, full curve, poor fit]",–

# A few values from the list:
# Potency with CC(C)=CCC/C(C)=C/CNC(=O)CC1C[C@H](C(=O)N(C(C)C)C(C)C)[C@@]2(C)c3[nH]c4ccccc4c3CCN2C1=O (some centres not stated) is entered as inconclusive: 29.1 µM [falling, single point]
# Potency with COc1cccc(CNC(=O)CCNS(=O)(=O)c2ccc(C)cc2)c1 is entered as inconclusive: 4.11 µM [activator, partial curve, poor fit]

# (cont.)

Structure (SMILES),Potency,"activity change, negative = inhibition"
Cc1ccc(S(=O)(=O)NCc2cn3c(C)csc3n2)cc1,"inconclusive: 5.8 µM [activator, single point]",–
CCc1ccc(C(=O)COC(=O)c2cc([N+](=O)[O-])ccc2N2CCOCC2)cc1,"inconclusive: 29.1 µM [falling, single point]",–
Cc1nn2c(COc3ccc(NC(=O)c4ccccc4)cc3)nnc2c2ccccc12,"inconclusive: 10.3 µM [falling, partial curve]",–
COc1ccccc1NC(=O)c1cc2c(C)nn(-c3ccccc3)c2s1,"inconclusive: 16.4 µM [falling, partial curve, poor fit]",–
Cc1ccc(-n2nnnc2C(Cl)c2nnnn2-c2ccc(C)cc2)cc1,"inconclusive: 4.61 µM [activator, partial curve]",–
Cc1ccc(C(=O)Nc2c(C)cc(-c3ccccc3)oc2=O)cc1,"inconclusive: 10.3 µM [falling, partial curve, poor fit]",–
O=C(NCCC1=CCCCC1)c1ccc(-n2cncn2)cc1,"inconclusive: 23.1 µM [activator, partial curve]",–
CCOC(=O)c1c(C)[nH]c(N=Nc2ccc(C)cc2)c1C,"inconclusive: 2.59 µM [activator, partial curve]",–
COc1ccc(NC(=O)c2sc3nc(C(F)(F)F)cc(C)c3c2N)cc1OC,"inconclusive: 10.3 µM [falling, partial curve, poor fit]",–
CCCn1c(NC(=O)c2ccco2)nc2ccccc21,"inconclusive: 14.6 µM [falling, partial curve, poor fit]",–
O=c1[nH]nc(Cc2ccc([N+](=O)[O-])cc2)c2ccccc12,"inconclusive: 20.6 µM [falling, single point]",–
CCOC(=O)C1(CCOc2ccccc2)CCN(Cc2ccc(OC)c(COC)c2)CC1,"inconclusive: 10.3 µM [falling, partial curve, poor fit]",–
COc1ccc(C(=O)OCCN2C(=O)c3ccccc3C2=O)cc1OC,"inconclusive: 18.4 µM [falling, single point]",–
Cc1ccc(C)c(N2CCN(S(=O)(=O)c3c(C)[nH]c(C)c3C(=O)N3CCCCC3)CC2)c1,"inconclusive: 5.8 µM [activator, partial curve, poor fit]",–
COc1ccc(CNC(=O)C/C(C)=N/NC(=O)c2ccc([N+](=O)[O-])cc2Cl)cc1,"inconclusive: 2.06 µM [activator, partial curve]",–
CN(c1ccccc1)S(=O)(=O)c1cccc(NC(=O)C2CCCO2)c1 (configuration not stated),"inconclusive: 16.4 µM [falling, partial curve]",–
Cc1c(C(=O)OCC(=O)N2CC(=O)Nc3ccccc32)oc2ccccc12,"inconclusive: 0.231 µM [falling, full curve, poor fit]",–
O=C(OCC1CCCO1)c1ccc2c(c1)N(Cc1ccccc1)C(=O)c1ccccc1S2(=O)=O (configuration not stated),"inconclusive: 29.1 µM [activator, single point]",–
CC(=O)COc1ccc(-c2csnn2)cc1,"inconclusive: 7.31 µM [activator, partial curve, poor fit]",–
O=C(CSc1ccc(F)cc1)Nc1ccc2c(c1)C(=O)NC2=O,–,inactive: 8.91%
O=C(NCC1([N+](=O)[O-])CN(C(=O)c2ccccc2)CN(C(=O)c2ccccc2)C1)c1ccccc1,"inconclusive: 20.6 µM [falling, single point]",–

Structure (SMILES),Potency,"activity change, negative = inhibition"
COc1ccccc1C(=O)NNC(=O)c1cccc(O)c1,"inconclusive: 29.1 µM [falling, single point]",–
COc1ccc(NC(=O)NCCN2C(=O)C3C4C=CC(C4)C3C2=O)cc1 (configuration not stated),"inconclusive: 32.6 µM [activator, partial curve, poor fit]",–
Cn1c(=O)c2c(nc(SCC(=O)c3cccs3)n2Cc2ccc(F)cc2)n(C)c1=O,"inconclusive: 29.1 µM [falling, single point]",–
CCN(CC)CCC(c1ccc2c(c1)OCO2)c1c(OC)cc(OC)c2c(C)cc(=O)oc12 (configuration not stated),–,inactive: 8.49%
Cn1cc(/C=C/c2cc[n+](C)cc2)c2cc(F)ccc21,active: 1.64 µM,–
COc1ccc(OC)c(NC(=O)Nc2c(C)n(C)n(-c3ccccc3)c2=O)c1,–,inactive: 13.3%
CCCCCCc1cc2cc(C(=O)Nc3ccccc3)c(=O)oc2cc1O,–,inactive: 2.3%
Cc1ccc(NC(=O)C2CCN(C(=O)c3ccc(Cl)cc3)CC2)nc1,"inconclusive: 29.1 µM [falling, single point]",–
O=C(NNC(=S)Nc1ccc(Cl)c(Cl)c1)c1ccccn1,"inconclusive: 2.31 µM [falling, full curve]",–
CC1CCc2sc(C(=O)NCC3CCCO3)cc2C1 (configuration not stated),"inconclusive: 1.84 µM [activator, full curve]",–
COc1cc(C(=O)O)ccc1OCc1ccncc1,–,inactive: 2.02%
Cc1ccc(-c2csc(=Nc3ccccc3)n2Cc2ccc3c(c2)OCO3)cc1,"inconclusive: 29.1 µM [falling, single point]",–
CCc1nc2sc3ccccc3c(=O)c2c(=O)n1Cc1ccc(OC)cc1,"inconclusive: 29.1 µM [falling, single point]",–
O=C(c1ccc(F)cc1)N1CCN(S(=O)(=O)c2ccc(Br)cc2)CC1,–,inactive: 7.15%
COc1ccc(CCNC(=O)c2ccc(CNS(=O)(=O)c3ccc(C(C)(C)C)cc3)cc2)cc1OC,"inconclusive: 14.6 µM [falling, partial curve, poor fit]",–
Cc1n(Cc2ccccc2)c2cc([N+](=O)[O-])ccc2[n+]1Cc1ccccc1,–,inactive: 0.445%
O=C(NC1CCN(Cc2ccccc2)CC1)c1ccc(Cn2c(=O)c3ccccc3n(Cc3ccc(F)cc3)c2=O)cc1,"inconclusive: 16.4 µM [falling, partial curve, poor fit]",–
COc1ccc(CCNC(=O)Cn2c(=O)n(-c3cc(F)ccc3F)c(=O)c3sccc32)cc1OC,"inconclusive: 6.51 µM [falling, partial curve, poor fit]",–
CCc1cccc(CC)c1NC(=O)CN1C2CCCC1CC(NC(=O)Nc1cccc(OC)c1)C2 (configuration not stated),"inconclusive: 18.4 µM [activator, partial curve]",–
O=C(COc1ccc(Br)cc1)N1CCN(c2ccc([N+](=O)[O-])c(N3CCCCC3)c2)CC1,"inconclusive: 32.6 µM [falling, partial curve, poor fit]",–

# Given tab-delimited: part of the list above
Structure (SMILES)	Potency	activity change, negative = inhibition
COc1ccc(CCNC(=O)Cn2c(=O)n(-c3cc(F)ccc3F)c(=O)c3sccc32)cc1OC	inconclusive: 6.51 µM [falling, partial curve, poor fit]	–
CCc1cccc(CC)c1NC(=O)CN1C2CCCC1CC(NC(=O)Nc1cccc(OC)c1)C2 (configuration not stated)	inconclusive: 18.4 µM [activator, partial curve]	–
